Columns and labels:
[1] = system: CFA-induced pain model in rats; assay: Antiallodynic activity on Complete Freund's Adjuvant (CFA)-induced inflammatory pain model; type: in vivo, Sprague-Dawley rats; details: intraperitoneally
Experimental: Male, Sprague-Dawley rats (210-250 g, Nara Bio, Korea) were habituated for 1 week before surgery and allowed free access to food and water throughout the experimentation. Room temperature and humidity were maintained at 24±2 and 50±10%, respectively.
CFA-induced inflammatory pain was induced by the procedure of Nagakura et al. (2003) and Gregory P. et al. (2010) with minor modifications. CFA (sigma, USA) was injected in the right plantar with a 100 ul volume under gaseous anesthesia with isoflurane. Sham controls were injected with 100 ul of saline, and preparation of the vehicle controls were identical to the group treated with compound, except for administration of vehicles without indentical to the vihecle control group.
Tactile sensitivity (Mechanical allodynia) was evaluated using von Frey monofilaments before and after treatment, and animals were include in the study only if the withdrawal threshold value was less than 4 g. One week after CFA injection, CFA-infused animals, sham-operated animal, and vehicle-operated animals were tested for tactile sensitivity with von Frey monofilaments, with 3 trials for each animal. All Animals were placed in a stainless steel mashe chamber and habituated for 30 min in the test cage. The tactile sensitivity for ipsilateral hind paw was measured using the up-and-down method (Dixon, 1980) with seven von Frey monofilaments (0.4, 1, 2, 4, 6, 8, and 15 g) to 3 trials. The tactile sensitivity test was followed by Dixon's method (Dixon, 1980). The 50% paw withdrawal threshold for each paw was calculated using the following formula: [Xth]log=[vFr]log+ky where [vFr] is the force of the last von Frey used, k=0.2249 which is the average interval (in log units) between the von Frey monofilaments, and y is a value that depends upon the pattern of withdrawal responses (Dixon, 1980).
Antiallodynic effect of compounds was evaluated at the dose of 50 mg/kg (n=4-6), intraperitoneally administrated in a volume of 5 ul/g bw in a vehicle of 30% (v/v) PEG or 20% (v/v) Tween 80. The test was performed peak time of efficacy (0.5 hr) after compound administration.
The relative values compared to the sham (% control) were calculated and shown in Table 5, which show an antiallodynic effect of Compound 1 on CFA-induced pain model in rats.

[2] = system: MES (electroshock) seizure in mice; assay: Anti-epilepsy activity, MES test in mouse; type: in vivo, ICR mice
Experimental: In the MES test (Ref., G. Villetti et al. Neuropharmacology 40(2001) 866-878), an electrical stimulus (mice: 50 mA, 60 Hz, 0.2 sec, and rats: 150 mA, 60 Hz, 0.2 sec in the test animal) supplied by an 11A Shocker (IITC Life Science Company) was delivered through corneal electrodes. All mice or rats assigned to any electroshock at peak time were treated with each test compound sample which was dissolved in 20% tween 80 prepared by saline solvent applied orally before the test. […] Three doses of the test sample were administered orally to 9-18 animals (3-6 mice per dose) for evaluating the respective doses at which 50% of the animals were protected from seizure (ED50). The ED50 value (median effective dose) was calculated by Litchfield and Wicoxon log-probit method which is a dose-response relationship. Experimental animals, male ICR mice and male SD rats, were purchased from OrientBio, Samtako, or Nara Biotech, Korea, and housed in cages (4-5 mice or 3 rats per cage) for 4-5 days. The range of mice body weight was between 19 and 25 grams and range of rats body weight was between 100 and 130 grams.

8-chloro-2-hydroxy-1,2,3,4-tetrahydronaphthalen-1-yl carbamate (mixture of SR & RS) [Example 20]
CFA model Peak Time [1]: 0.5 h
MES test (po) Peak time [2]: 0.5 h

NC(=O)O[C@@H]1CCc2cccc(Cl)c2[C@H]1O [Example 4, (1R, 2R)-8-chloro-1-hydroxy-1,2,3,4-tetrahydronaphthalen-2-yl carbamate]
MES test (po) Peak time [2]: 4 h

NC(=O)O[C@@H]1CCc2ccc(Cl)cc2[C@@H]1O [Example 6, (1S, 2R)-7-chloro-1-hydroxy-1,2,3,4-tetrahydronaphthalen-2-yl carbamate]
CFA model Peak Time [1]: 0.5 h
MES test (po) Peak time [2]: 4 h

NC(=O)O[C@H]1CCc2ccc(Cl)cc2[C@H]1O [Example 7]
CFA model Peak Time [1]: 0.5 h
MES test (po) Peak time [2]: 2 h

NC(=O)O[C@@H]1CCc2cc(Cl)ccc2[C@@H]1O [Example 8, (1S, 2R)-6-chloro-1-hydroxy-1,2,3,4-tetrahydronaphthalen-2-yl carbamate]
MES test (po) Peak time [2]: 1 h

NC(=O)O[C@H]1CCc2cc(Cl)ccc2[C@H]1O [Example 9, (1R, 2S)-6-chloro-1-hydroxy-1,2,3,4-tetrahydronaphthalen-2-yl carbamate]
CFA model Peak Time [1]: 0.5 h

NC(=O)O[C@@H]1CCc2cccc(I)c2[C@@H]1O [Example 12, (1S, 2R)-1-hydroxy-8-iodo-1,2,3,4-tetrahydronaphthalen-2-yl carbamate]
CFA model Peak Time [1]: 0.5 h
MES test (po) Peak time [2]: 4 h

NC(=O)O[C@H]1CCc2cccc(I)c2[C@H]1O [Example 13, (1R, 2S)-1-hydroxy-8-iodo-1,2,3,4-tetrahydronaphthalen-2-yl carbamate]
CFA model Peak Time [1]: 0.5 h
MES test (po) Peak time [2]: 1 h

NC(=O)O[C@@H]1CCc2ccccc2[C@@H]1O [Example 14, (1S, 2R)-1-hydroxy-1,2,3,4-tetrahydronaphthalen-2-yl carbamate]
MES test (po) Peak time [2]: 1 h

NC(=O)O[C@H]1c2ccccc2CC[C@H]1O [Example 16, (1S, 2R)-2-hydroxy-1,2,3,4-tetrahydronaphthalen-1-yl carbamate]
MES test (po) Peak time [2]: 0.5 h

NC(=O)O[C@H]1c2cc(Cl)ccc2CC[C@H]1O [Example 21, (1S, 2R)-7-chloro-2-hydroxy-1,2,3,4-tetrahydronaphthalen-1-yl carbamate]
CFA model Peak Time [1]: 0.5 h
MES test (po) Peak time [2]: 3 h

NC(=O)O[C@H]1c2ccc(Cl)cc2CC[C@H]1O [Example 23, (1S, 2R)-6-chloro-2-hydroxy-1,2,3,4-tetrahydronaphthalen-1-yl carbamate]
MES test (po) Peak time [2]: 2 h

NC(=O)O[C@H]1c2c(I)cccc2CC[C@H]1O [Example 27, (1S, 2R)-2-hydroxy-8-iodo-1,2,3,4-tetrahydronaphthalen-1-yl carbamate]
CFA model Peak Time [1]: 0.5 h

NC(=O)O[C@@H]1c2c(I)cccc2CC[C@@H]1O [Example 28, (1R, 2S)-2-hydroxy-8-iodo-1,2,3,4-tetrahydronaphthalen-1-yl carbamate]
CFA model Peak Time [1]: 0.5 h

NC(=O)O[C@H]1CCc2cccc(I)c2[C@H]1OC(N)=O [Example 37, (1R, 2S)-8-iodo-1,2,3,4-tetrahydronaphthalen-1,2-diyl dicarbamate]
MES test (po) Peak time [2]: 2 h

NC(=O)O[C@H]1c2c(F)cccc2C[C@H]1O [Example 69, (1S, 2R)-7-fluoro-2-hydroxy-2,3-dihydro-1H-inden-1-yl carbamate]
MES test (po) Peak time [2]: 2 h

COCO[C@@H]1c2c(Cl)cccc2C[C@@H]1OC(N)=O [Example 72, (1R, 2S)-7-chloro-1-(methoxymethoxy)-2,3-dihydro-1H-inden-2-yl carbamate]
CFA model Peak Time [1]: 0.5 h

COCO[C@H]1Cc2cccc(Cl)c2[C@H]1OC(N)=O [Example 76, (1R, 2S)-7-chloro-2-(methoxymethoxy)-2,3-dihydro-1H-inden-1-yl carbamate]
CFA model Peak Time [1]: 0.5 h
